Laboratory results from patent US6613572B2, “Agent for expression of long-term potentiation of synaptic transmission comprising compound having brain somatostatin activation property” (priority 1999, dated 2003).
For at least one compound, name, drawing or mass did not settle the structure.

System: voltage-dependent calcium channel of hippocampus pyramidal cell
Experiment: Effect of somatostatin and compound 1 on voltage-dependent Ca2+ current of rat hippocampus pyramidal cell
Type: cell-based
Conditions: somatostatin 10^-7 M in bath outer solution
Procedure: Hippocampal slices were prepared from the brains of 5- to 14-day-old male Wistar rats and the nerve cells were quickly isolated by trypsin enzyme treatment method. According to the whole cell patch-clamp method, the membrane potential of hippocampus pyramidal cell was fixed at −80 mV and the membrane potential-dependent […] current (Ica) was measured in Cs^+ electrode inner solution and Ba^2+ bath outer solution. The resistance of the electrode was 2-4 MΩ. Compound 1 was added to bath outer solution concentrations of 0.01 μM, 0.1 μM and 1.0 μM, respectively, and perfused with the bath outer solution. Nothing was added to the bath outer solution for the control group. The maximal value of the current (peak amplitude) was measured, and calculated as the variation (%) relative to the value before addition of compound 1. Each value (%) was expressed by mean±S.E.M. The number of measurements was 7. The property of compound 1 was evaluated by Dunnett's multiple comparison test relative to the control group. […]

C[C@H](N)C(=O)NCC(=O)N[C@H]1CSSC[C@@H](C(=O)O)NC(=O)[C@H](CO)NC(=O)[C@H]([C@@H](C)O)NC(=O)[C@H](Cc2ccccc2)NC(=O)[C@H]([C@@H](C)O)NC(=O)[C@H](CCCCN)NC(=O)[C@H](Cc2c[nH]c3ccccc23)NC(=O)[C@H](Cc2ccccc2)NC(=O)[C@H](Cc2ccccc2)NC(=O)[C@H](CC(N)=O)NC(=O)[C@H](CCCCN)NC1=O [somatostatin]
membrane potential-dependent calcium current, somatostatin alone: evidently suppressed
